No constants are given. Whether binding was seen depends on the method and setting.
Target: BSA (bovine) (UniProt P02769)
Assay: condition: 5 µg hCM101 (no amount on the sheet); ELISA on coated antigen, O.D reading

Protein sequences, listed by entry. Tags and fused reporters are not part of them. Residues count along the entry.
UniProt P02769, residues 25-607: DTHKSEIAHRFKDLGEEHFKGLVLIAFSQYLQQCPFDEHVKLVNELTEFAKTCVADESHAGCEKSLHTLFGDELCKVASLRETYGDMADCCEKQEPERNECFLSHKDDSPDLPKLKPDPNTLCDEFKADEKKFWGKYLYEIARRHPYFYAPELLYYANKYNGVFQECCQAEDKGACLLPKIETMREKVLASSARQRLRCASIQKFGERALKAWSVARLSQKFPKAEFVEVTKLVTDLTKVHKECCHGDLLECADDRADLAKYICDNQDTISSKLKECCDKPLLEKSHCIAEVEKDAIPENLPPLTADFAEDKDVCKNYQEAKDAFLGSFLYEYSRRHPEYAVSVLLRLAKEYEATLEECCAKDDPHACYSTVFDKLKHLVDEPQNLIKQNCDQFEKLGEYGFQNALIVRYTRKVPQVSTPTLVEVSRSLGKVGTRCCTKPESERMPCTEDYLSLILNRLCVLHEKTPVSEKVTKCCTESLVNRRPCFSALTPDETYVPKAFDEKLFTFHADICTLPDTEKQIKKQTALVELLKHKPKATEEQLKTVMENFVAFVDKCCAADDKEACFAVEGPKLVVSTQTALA

B1: hCM101 (fully humanized anti-eotaxin-2 monoclonal antibody, humanized variant VH1/VK3) (antibody, human IgG1, V domains shown)
VH: QIQLVQSGPELKKPGASVKVSCRASGYPFTNSGMNWVKQAPGKGLKWMGWINTYNGEPTYTDDFKGRFAFSLETSASTAYLQINNLRNEDTATYFCASHSYGSSYAMDNWGQGTSVTVSS
VL: DIVLTQSPDSLAVSLGERATINCKASQSVDYDGDSYMNWYQQKPGQPPKLLIYVASNLKSGIPARFSGSGSGTDFTLTISSLQPEDFATYYCQQSNEEPWTFGGGTKVEIK
B1 was tested, and the binding was “no binding”.

— patent US20160368979A1
